Laboratory results: the supplement of paper PMC3334620
In all, about 33,000 sequences were measured (“E-score (-0.5 to 0.5)”: median about -0.0034, highest 2% from about 0.25 on). Some of the results follow.

molecular target: T1, Yap3 (UniProt P38749); assay: PBM E-score (8-mer binding enrichment) (E-score (-0.5 to 0.5)); higher = stronger / more preferred TF binding; conditions: protein concentration: 100 nM; construct: GST-full length
T1 sequence: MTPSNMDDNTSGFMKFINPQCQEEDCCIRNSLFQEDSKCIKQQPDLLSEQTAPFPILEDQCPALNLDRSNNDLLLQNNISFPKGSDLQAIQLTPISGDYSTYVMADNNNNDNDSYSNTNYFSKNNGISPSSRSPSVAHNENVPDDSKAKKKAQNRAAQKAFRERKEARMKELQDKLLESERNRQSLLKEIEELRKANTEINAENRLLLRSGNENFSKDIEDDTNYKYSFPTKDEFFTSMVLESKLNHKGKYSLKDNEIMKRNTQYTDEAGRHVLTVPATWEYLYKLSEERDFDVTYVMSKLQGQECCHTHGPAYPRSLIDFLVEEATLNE
Summary of the method: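 Yeast transcription factors carrying a GST tag, as full-length proteins or DNA-binding domains, were produced by PURExpress in vitro transcription/translation. About 100-200 nM protein was applied to universal all-10-mer Agilent arrays, double-stranded by primer extension on fresh or once-stripped slides. Bound protein was detected with fluorescent anti-GST, and scans were normalised with masliner. The Universal PBM Analysis Suite gave each ungapped eight-base word, pooled with its reverse complement, an E-score, a modified Wilcoxon-Mann-Whitney statistic.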

Sequence	PBM E-score
CACTTCGC	-0.00449
GCCTGTAC	-0.0409
CCATCAAC	0.18
ATGGGGCC	-0.352
AACAGAGA	0.0937
CTATGTTC	0.0857
AATAGTAT	0.229
CAATGAAG	-0.0559
AACGGTTA	-0.00989
AACTTATT	0.21
ACACTAGC	-0.0156
GCCAGCGA	-0.174
AATAAGTC	0.0193
AGACCACT	0.00102
AATTCTGC	0.129
GAGTGGGC	-0.129
AAGCGGCG	-0.131
AGATTTGG	-0.12
CCGACTCG	-0.0307
TACATCAA	0.082
CACAACCA	0.164
TCAGAGAA	-0.045
AGACAAAT	0.212
CTTCGCTA	0.0221
CGATTACC	-0.0743

Sequence	PBM E-score
AGGCTAAG	-0.113
ACCGTATC	0.0318
CATATAAG	0.113
CGTGAACC	-0.157
AACACAGG	-0.0592
AGAGGATG	0.0351
ACCTCACG	0.00135
CTAATGCC	-0.0329
GGTATCGA	0.101
GCCTCTTA	0.0137
CTCTCAAC	-0.119
GTAACAAA	0.174
CACTGACC	-0.061
AGTTCGAA	0.164
CTTCGGTA	-0.0668
GAGCTACC	-0.145
CCAATAAG	-0.00656
GCTGTGCC	-0.134
ACGCCTTA	-0.155
CCACGGAA	0.0091
GAAGTCGC	0.0657
GTATCCGA	-0.0824
TGCCCGAA	0.0181
GAGAAGCC	-0.0957
CCACTAGG	-0.201

Single values from the entries so far:
ACGCCTTA | PBM E-score: -0.155
TGCCCGAA | PBM E-score: 0.0181
CCACGGAA | PBM E-score: 0.0091
GTAACAAA | PBM E-score: 0.174
GAAGTCGC | PBM E-score: 0.0657

The results go on.

Sequence	PBM E-score
AATACCGC	0.0473
CTTCATAA	0.0897
ATTTTCCA	0.13
CGACAACA	0.152
GGTCGCAC	-0.0706
ACTTCCAT	0.00262
GGGTCCTA	-0.127
CATTGACC	0.216
TGATATAA	0.108
ACTACAGA	0.144
ACTGCTTG	-0.253
ATCCCCTG	-0.237
AAAACGAG	0.0188
CGTCAGTA	-0.13
AGGTTTAA	0.0408
GAGGGAGC	-0.251
CCGGCGAG	-0.0273
AGGCGTGC	0.016
TAGGGAGA	-0.0269
ATTCAGTG	0.129
AGACTATC	0.0563
ACAGTAGG	-0.0832
AGCGCACG	-0.0432
ATGCTGAA	0.0042
AAGCCATC	0.109

Sequence	PBM E-score
ATCGCGCA	0.00588
GAACACAA	0.089
GCCTCTCC	-0.275
AATATTAG	0.239
GTCATCAC	-0.00817
TCCTTAGA	-0.141
AGACCTGA	0.0621
CACGTCCA	-0.153
ATTAGTTA	0.291
CAGCCGAC	-0.182
TATTAGGA	0.129
CCTCACTA	-0.0473
AAACAGAA	0.19
ATCGGCCC	-0.0684
AATTCCAA	0.15
CGGCGTAA	0.172
CTCATACA	0.0806
CTTCCAGA	0.0386
ACACGCAG	-0.18
GGGATAAA	0.172
GCAACTGA	0.006
GCTCAGAA	-0.016
GTCGGAAC	-0.0566
GGTCAAAC	-0.0628
CCCTCGCA	-0.0713

As a short view, some entries already given.
Sequence	PBM E-score
CTCATACA	0.0806
CTTCCAGA	0.0386

Carrying on:

Sequence	PBM E-score
AGGATCCC	-0.156
GCTCCTAA	-0.265
ACGCCTGC	-0.26
GCATCCGC	-0.101
CCTTTTGC	-0.0359
ACTTTAAG	0.138
ACCTGAGT	-0.052
AGGCCTTC	0.00868
CGACCTTC	0.0383
GATCTCGA	0.00476
ACTGGCAG	-0.135
AGATACAG	0.159
GCATGTGA	0.0561
CGACAGCA	-0.0646
ATGGGTCG	-0.152
GACATGCA	0.00239
GTCGCATA	0.0927
CACATAAC	-0.0392
AGTTGAAG	0.0421
CCGCAGCC	-0.174
AAGCAACC	0.0923
ACACCCTA	-0.0214
AACTGACG	-0.0145
CCGTTCGC	0.00583
ATCCGACG	-0.0364

Sequence	PBM E-score
AGAGCGCT	-0.0304
GGTTACTA	0.0437
AACACATC	0.00349
CACGCGAC	0.0191
AGGAACCG	-0.0478
CGCGCATA	0.0347
AGGACGAT	0.0178
GGACGGTA	-0.0107
ACATAAGG	0.17
CCTCTGGA	-0.136
GCCTGTCA	-0.0613
ATCGGAAT	0.15
CCGCACGC	-0.149
ACCTTACA	0.0448
GGAGATAA	0.107
ATAGTGCC	-0.0304
CCCTTGTC	-0.0711
AAGCAATG	0.142
GCGACGAA	-0.00754
ACGTAAAA	0.198
CCTTTAAA	-0.0208
AAGAGATT	0.0728
TAAGGCTA	-0.0438
CTCCGCGA	-0.128
AGTCTCCA	-0.128

Sequence	PBM E-score
CGCTCGCC	-0.0305
CCGAATCC	0.0723
CCGATGAG	0.053
CCATTGCC	-0.00355
CTGTATTC	0.128
GCTCAAGA	-0.261
GGTGTGTA	0.0354
TTGGCAAA	0.14
ACCATGAT	-0.0481
CTAGTCAA	-0.0259
GGGTAGAC	-0.216
CGGCCAAG	-0.136
ATCTCACC	0.0914
ACCTTGAC	-0.0329
ACATCCTC	-0.0125
CTCTTGCA	-0.214
TAATGGCA	0.105
ACGAACTC	0.0654
ATATGTCG	0.0372
ATTTAAAC	0.242
AGTCACTG	-0.057
CTCCTTAA	-0.15
GGCTGGAC	-0.295
TAACCTTA	-0.0831
CGTGTTCA	0.103

Sequence	PBM E-score
GGTGGTGA	-0.11
AATATACA	0.241
ACGCTAAT	0.015
ATCTCAAT	0.0281
ACAGTGCT	0.0811
CAGGACGG	-0.141
AGGATAGA	-0.00474
AGATCCCC	-0.147
CCTAATCA	0.0984
CTTATATC	0.218
CTCTTAAA	0.198
AGTCTCGG	-0.158
ATGGCATA	0.0884
AGCCCATG	-0.113
ATGTCCCC	0.0276
CACTCACC	-0.0833
AAGGCTCT	-0.198
AGTCCCCC	-0.439
AGAAGAAT	-0.0458
CCTTTGGA	-0.218
ATTACTTC	0.0658
CGTTCCTA	-0.0944
AAATGAAT	0.0825
AGATAATA	0.231
AAAGCGCC	-0.00492

Sequence	PBM E-score
GAGGTGCA	0.0881
AAACGTGG	-0.0654
AGAGAAAT	0.142
CTATCCAC	0.0412
ACACACGA	0.152
AGCCCTAA	-0.114
CGACTATA	0.0848
CGCCACTC	0.113
CAGATCAG	0.185
ATACTGCA	0.107
ACTGGATC	0.00422
CAAACGGG	-0.00468
AGGGGTGA	-0.245
ACTTTGGC	-0.0911
ACTATCGA	0.0401
ATAAAACG	0.206
GCGTAAAC	0.191
GAACCGTA	-0.121
CCGCAGCG	-0.158
CTCGCTGA	-0.0804
CAAAGGTA	-0.162
TGTTCCAA	-0.00789
GGCACAAC	-0.102
CGAGCTCC	-0.15
GCATGAGA	0.0543

Sequence	PBM E-score
CCAACTCA	-0.0415
ACATTGAC	0.0696
GTTCCTAA	-0.0238
ACTACTGC	-0.0865
CCTCACAC	-0.0974
AGTATACC	0.153
GACTAGTC	-0.203
CTGCCCTC	-0.233
CAGAACCC	-0.169
GTACCCAA	-0.0653
CACATCTA	0.138
AGAACCGA	-0.121
GCGACCAC	-0.0579
AAGCTGGC	-0.132
CAGGGAAA	0.00675
GCATTTCA	0.15
AATCCGAA	-0.0138
ATCCGTGG	-0.106
GATATGGA	0.263
AGGTTCGG	-0.158
ATACATTA	0.266
AGGCGACA	-0.224
AATGTCCC	-0.00806
AGACCGGC	-0.291
AGAACGGC	0.0349

Sequence	PBM E-score
CCATGAAC	0.0278
TATGGACA	0.0793
ACGTTCGC	-0.135
ACTGGCTC	-0.178
AATCAACG	0.109
AGGTCCCC	-0.242
AGTCGTGC	-0.239
CAGGTGCG	0.015
ACTCAATC	0.077
TAGTTAGA	-0.00451
AGTTGCAC	-0.129
ATGTTAGC	0.0139
GATTCAGC	-0.0847
GCGAGGGA	-0.092
ACATTTCC	0.109
CCAAATCC	-0.0453
ACATGTTG	0.13
CCACATCC	-0.123
CAGACTGG	-0.17
CTATCCGA	0.0195
GCCTAGAA	-0.0144
TCCTATAA	0.133
CAATAATG	0.00616
GAAGACAA	0.131
TGAAGAAA	-0.0319

Fetched one by one from the entries so far (6):
Sequence	PBM E-score
GCGAGGGA	-0.092
GAAGACAA	0.131
CAGACTGG	-0.17
CAATAATG	0.00616
ATGTTAGC	0.0139
TAGTTAGA	-0.00451

Following part

Sequence	PBM E-score
ATGAACGC	0.144
GTCGAAAC	-0.0355
GGTTGTAC	-0.11
CAAAAATA	0.332
CACTTCGA	0.035
CTACAGGC	-0.161
ATAGCGTC	0.0478
GCCACGCC	-0.175
AACACCTT	0.0653
TAGCCACA	0.0597
TCTTCCAA	-0.00597
GACGAGGC	-0.156
ATAGGTTA	0.0929
GAATACTA	0.232
GACGTTCC	-0.0407
AGTAGACT	0.0177
AATTCTAA	0.135
CTTGTTGA	0.0519
ACATTGCT	0.00432
CGGTCCTA	-0.253
TGGGGAAA	0.0416
CATAAAAA	0.186
CCTAAATC	0.097
GGATTCAA	0.0633
CAGCATAA	0.118

Sequence	PBM E-score
AAACATCG	-0.149
AATCGGCT	0.0793
GCCCATCC	-0.281
CGGCGGCC	-0.123
TACTAACA	0.294
CATTGTGC	0.137
CAGGGCAG	-0.117
AGTATTCG	0.0991
CTTATTAA	0.339
CAAAGTTC	0.0509
CACAGATG	-0.142
GGTACACA	0.00705
CTAGGTTC	-0.106
CGTGCGGA	-0.0214
AATCCGTG	-0.113
CAGGAGAA	-0.00803
ACATTCTC	0.104
ACCCAGAC	-0.175
CCTGTGAG	-0.0856
CCTTATCA	0.187
GAACCGGC	-0.127
ACACCGCG	-0.178
ATCTGTGG	-0.191
GCAGCAGA	-0.0581
GCGTTACA	0.0179

Sequence	PBM E-score
GAAAAAGA	0.252
GCAAAAAA	0.202
ATTCCGGA	0.136
GTTTTCTA	0.183
ATAATCCG	0.17
AGTACTTC	0.23
GCCCTGTA	0.054
ATTAAGTG	0.156
GGTTCAAA	-0.0457
CGCACCAG	-0.0528
AGAACCAG	0.0965
CGTATCCC	-0.126
CAGGAATC	0.09
TATAATGA	0.136
ATTTCATC	0.269
GCGCGGGA	-0.0479
GCGCCACC	-0.165
CAGACGCC	-0.132
AGGCGAAG	-0.078
